Assay results reported in paper PMC2731243, “Structure and Novel Functional Mechanism of Drosophila SNF in Sex-Lethal Splicing”.

Target: T1, SNF RRM2 (Drosophila melanogaster) (UniProt P43332)
T1 sequence (looked up): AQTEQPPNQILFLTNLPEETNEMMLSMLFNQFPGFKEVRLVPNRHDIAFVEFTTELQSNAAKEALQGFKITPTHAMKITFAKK
Experiment: NMR titration
Details: recombinant protein; residues 134-216

Sequence: UUUUUUUUAUUUUUUUUU [2U-run (NMR)]
- binding result: binds more weakly

Weaker means in comparison with the reference protein, sequence or condition of that experiment. Where a protein sequence is shown, tags need not be part of it.
